Data reported in US12599646B2, “Peptide-containing composition for use for treating neoplastic lesions” (CYTOVATION ASA, priority 2020, dated 2026).
Part of at least one peptide drawing is inferred or uncertain, most often the ends. At least one read-out could not be matched to a standard name with certainty. Square brackets hold non-standard residues; d marks the D form. Peptide text beside a SMILES is read from it.

Tests used:
[1] = Stability of CyPep-1 in liquid excipients (recovery by HPLC); assay type: physicochemical
[2] = Binding of CyPep-1 to synthetic membranes (recovery after incubation); assay type: physicochemical; conditions: 32° C., compared to control with no membrane, n=3

Which “recovery of CyPep-1” value ([1]; 4 weeks storage at 40° C. in a mixture of ethanol and phenoxyethanol) does the source give for `CC[C@@H](C)[C@@H](NC(=O)[C@@H](C)NC(=O)[C@@H](CCCCN)NC(=O)[C@@H](C)NC(=O)[C@H](NC(=O)[C@@H](CCCNC(=N)N)NC(=O)[C@@H](CC(C)C)NC(=O)[C@H](NC(=O)[C@@H](CCCCN)NC(=O)CNC(=O)[C@@H](CCCNC(=N)N)NC(=O)[C@@H](CCCNC(=N)N)NC(=O)[C@@H](CCCNC(=N)N)NC(=O)[C@@H](CCC(N)=O)NC(=O)[C@@H](CCCNC(=N)N)NC(=O)[C@@H](CCCNC(=N)N)NC(=O)[C@@H](CCCCN)NC(=O)[C@@H](CCCCN)NC(=O)[C@@H](CCCNC(=N)N)NC(=O)CNC(=O)[C@H](N)Cc1ccc(O)cc1)[C@H](C)O)C(C)C)C(=O)N[C@H](Cc1ccc(O)cc1)C(=O)N[C@H](CCCCN)C(=O)N[C@H](CCCNC(=N)N)C(=O)N[C@H](Cc1ccc(O)cc1)C(=O)N[C@@H](C(=O)N[C@H](CCC(=O)O)C(=O)O)[C@H](C)CC` [CyPep-1] (H-[dY]G[dR][dK][dK][dR][dR][dQ][dR][dR][dR]G[dK][dT][dL][dR][dV][dA][dK][dA][dI][dY][dK][dR][dY][dI][dE]-OH; N-terminus and C-terminus assumed) here?
Its value is “at least 95%”.

What about the “recovery of CyPep-1” value ([1]; 4 weeks storage at 40° C. in deionised water (pH 4-7)) of the same compound?
Its value is “at least 95%”.

What about the “recovery of CyPep-1” value ([1]; 4 weeks storage at 50° C. in deionised water (pH 4-7)) of the same compound?
Its value is “at least 95%”.

And the “Recovery of CyPep-1 following incubation with membrane” value (shortened to “Recovery … with membrane”) ([2]; Cellulose membrane, 24 Hours)?
Its value is 38.32.

And the “Recovery … with membrane” value ([2]; Cellulose membrane, 48 Hours)?
The value was 18.54.

And the “Recovery … with membrane” value ([2]; Cellulose membrane, 96 Hours)?
Its value is 18.6.

What about the “Recovery … with membrane” value ([2]; Isopore membrane, 24 Hours) of the same compound?
The value was 93.61.

What about the “Recovery … with membrane” value ([2]; Isopore membrane, 48 Hours) of the same compound?
The value was 89.52.

What about the “Recovery … with membrane” value ([2]; Isopore membrane, 96 Hours) of the same compound?
Its value is 88.61.

What about the “Recovery … with membrane” value ([2]; Nitrocellulose membrane, 24 Hours) of the same compound?
Its value is 74.67.

What about the “Recovery … with membrane” value ([2]; Nitrocellulose membrane, 48 Hours) of the same compound?
Its value is 65.62.

And the “Recovery … with membrane” value ([2]; Nitrocellulose membrane, 96 Hours)?
The value was 76.03.

And the “Recovery … with membrane” value ([2]; Nylon membrane, 24 Hours)?
Its value is 82.77.

And the “Recovery … with membrane” value ([2]; Nylon membrane, 48 Hours)?
The value was 59.6.

And the “Recovery … with membrane” value ([2]; Nylon membrane, 96 Hours)?
Its value is 77.54.

What about the “Recovery … with membrane” value ([2]; Supor membrane, 24 Hours) of the same compound?
Its value is 81.53.

What about the “Recovery … with membrane” value ([2]; Supor membrane, 48 Hours) of the same compound?
Its value is 70.39.

What about the “Recovery … with membrane” value ([2]; Supor membrane, 96 Hours) of the same compound?
The value was 86.13.
